Our source for the binding values is paper PMC8495398.

For this experiment, the target named is T1, Plasticity-related gene 1 (PRG-1) protein (rat (endogenous in hippocampus)) (UniProt Q7TMB7).
T1 sequence: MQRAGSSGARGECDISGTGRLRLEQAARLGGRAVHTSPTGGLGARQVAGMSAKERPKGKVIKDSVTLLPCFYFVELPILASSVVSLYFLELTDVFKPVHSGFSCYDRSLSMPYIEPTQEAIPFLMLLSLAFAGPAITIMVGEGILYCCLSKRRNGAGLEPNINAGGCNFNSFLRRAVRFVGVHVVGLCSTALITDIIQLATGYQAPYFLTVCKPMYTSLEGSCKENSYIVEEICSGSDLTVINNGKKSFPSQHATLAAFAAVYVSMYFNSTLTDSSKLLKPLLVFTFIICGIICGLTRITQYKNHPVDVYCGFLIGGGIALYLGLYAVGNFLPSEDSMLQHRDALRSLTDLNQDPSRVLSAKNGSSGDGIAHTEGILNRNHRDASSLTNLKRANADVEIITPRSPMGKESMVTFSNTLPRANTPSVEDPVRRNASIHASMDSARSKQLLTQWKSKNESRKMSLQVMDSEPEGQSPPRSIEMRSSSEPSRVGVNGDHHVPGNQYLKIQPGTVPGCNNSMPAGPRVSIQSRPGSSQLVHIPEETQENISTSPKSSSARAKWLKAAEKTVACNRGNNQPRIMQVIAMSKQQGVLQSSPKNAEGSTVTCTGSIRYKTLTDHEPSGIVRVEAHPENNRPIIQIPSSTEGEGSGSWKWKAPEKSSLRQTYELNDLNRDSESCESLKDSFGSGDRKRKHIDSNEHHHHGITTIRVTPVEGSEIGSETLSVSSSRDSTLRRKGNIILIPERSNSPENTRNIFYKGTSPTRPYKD
The experiment can be described thus: co-IP; immunoprecipitation studies told only in the discussion, no figure; which protein was precipitated is not told.

Results are given in words; binding and its absence hold for the method and conditions named. In cells and extracts the contact can be indirect.

B1: Purinergic P2X7 receptor (receptor, UniProt Q64663 1-595)
chain: MPACCSWNDVFQYETNKVTRIQSVNYGTIKWILHMTVFSYVSFALMSDKLYQRKEPLISSVHTKVKGVAEVTENVTEGGVTKLVHGIFDTADYTLPLQGNSFFVMTNYLKSEGQEQKLCPEYPSRGKQCHSDQGCIKGWMDPQSKGIQTGRCIPYDQKRKTCEIFAWCPAEEGKEAPRPALLRSAENFTVLIKNNIDFPGHNYTTRNILPGMNISCTFHKTWNPQCPIFRLGDIFQEIGENFTEVAVQGGIMGIEIYWDCNLDSWSHRCQPKYSFRRLDDKYTNESLFPGYNFRYAKYYKENGMEKRTLIKAFGVRFDILVFGTGGKFDIIQLVVYIGSTLSYFGLATVCIDLIINTYASTCCRSRVYPSCKCCEPCAVNEYYYRKKCEPIVEPKPTLKYVSFVDEPHIWMVDQQLLGKSLQDVKGQEVPRPQTDFLELSRLSLSLHHSPPIPGQPEEMQLLQIEAVPRSRDSPDWCQCGNCLPSQLPENRRALEELCCRRKPGQCITTSELFSKIVLSREALQLLLLYQEPLLALEGEAINSKLRHCAYRSYATWRFVSQDMADFAILPSCCRWKIRKEFPKTQGQYSGFKYPY
For B1, the binding result is reported as “no binding”.
